Measured values taken from US20030064921A1, “Methods and compounds for modulating melanocortin receptor ligand binding and activity” (The Regents of the University of California, priority 1999, published 2003).
Results are given in words; binding and its absence hold for the method and conditions named. Some entries that bind do so weakly or less than the wild type.

Protein sequences, listed by entry. Tags and fused reporters are not part of them.
UniProt Q01726: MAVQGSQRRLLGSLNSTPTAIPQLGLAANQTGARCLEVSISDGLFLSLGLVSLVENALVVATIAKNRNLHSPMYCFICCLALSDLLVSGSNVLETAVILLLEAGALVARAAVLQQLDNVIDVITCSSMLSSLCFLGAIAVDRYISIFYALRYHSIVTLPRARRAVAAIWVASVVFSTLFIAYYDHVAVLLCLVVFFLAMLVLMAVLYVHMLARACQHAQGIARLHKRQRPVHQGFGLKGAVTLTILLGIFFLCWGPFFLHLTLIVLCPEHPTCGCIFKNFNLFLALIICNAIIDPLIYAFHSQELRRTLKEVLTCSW
UniProt P41968: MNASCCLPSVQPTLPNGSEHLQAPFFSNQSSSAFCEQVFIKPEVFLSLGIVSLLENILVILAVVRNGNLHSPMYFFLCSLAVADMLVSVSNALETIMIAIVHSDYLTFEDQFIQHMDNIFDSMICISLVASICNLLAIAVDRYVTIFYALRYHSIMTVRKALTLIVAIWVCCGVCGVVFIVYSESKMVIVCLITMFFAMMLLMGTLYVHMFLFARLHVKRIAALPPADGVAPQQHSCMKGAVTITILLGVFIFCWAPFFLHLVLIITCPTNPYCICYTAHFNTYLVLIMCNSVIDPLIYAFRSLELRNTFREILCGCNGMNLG
UniProt P33032: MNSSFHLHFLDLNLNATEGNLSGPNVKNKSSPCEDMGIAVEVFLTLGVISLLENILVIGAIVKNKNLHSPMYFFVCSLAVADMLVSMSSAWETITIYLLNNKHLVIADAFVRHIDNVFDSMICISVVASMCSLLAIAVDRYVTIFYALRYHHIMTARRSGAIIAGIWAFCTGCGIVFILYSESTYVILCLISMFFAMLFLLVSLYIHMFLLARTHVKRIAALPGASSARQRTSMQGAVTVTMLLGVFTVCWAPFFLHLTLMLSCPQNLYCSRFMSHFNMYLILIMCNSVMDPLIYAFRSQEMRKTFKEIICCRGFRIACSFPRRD

What was measured:
Assay in all cases: displacement of NDP-MSH from the receptor
[1] = biological target: melanocortin receptor 1 (human) (UniProt Q01726)
[2] = biological target: melanocortin receptor 3 (human) (UniProt P41968)
[3] = biological target: melanocortin receptor 5 (human) (UniProt P33032)

Measured: binding

CVRLHESCLGQQVPCCDPAATCYCRFFNAFCYCR (N-terminal acetyl group (Ac); C-terminal amide (-NH2); four disulfide bonds) [mini-AGRP Ac-…-NH2]
binds: all assays above
